Source: PubChem BioAssay AID540276 (National Center for Advancing Translational Sciences (NCATS), 2011)
Out of some 300,000 compounds screened, about 5,400 (1.8%) were called active. The shares of active, inactive and inconclusive entries below differ from those in the screen. Calls come from the whole dose curve; tested in HEK293 cells. Potencies beside an inconclusive call are fits to weak or partial responses and may not hold up.

Experiment: qHTS for inhibitors of binding or entry into cells for Marburg Virus
Settings: Marburg virus pseudotyped entry inhibition, cell reporter; series mostly up to 37.8 µM
Potency is the fitted concentration of half-maximal effect.

**Q.** With CC(=O)Nc1ccc(S(=O)(=O)NCC(=O)NNC(=O)c2csc(N3CCOCC3)n2)cc1 as the compound, how does the Potency read?
**A.** The Potency was “inactive”.

**Q.** Which Potency does the source give for Cc1cc(C)c(O)c(-c2cc(C(=O)Nc3ccc(S(=O)(=O)N4CCOCC4)cc3)[nH]n2)c1 here?
**A.** The Potency was inconclusive: 13 µM [inhibitor, partial curve, poor fit].

**Q.** For COC(=O)c1ccc(CSc2nc(-c3ccccc3)cs2)o1, which Potency is on record?
**A.** The Potency was inconclusive: 11.6 µM [activator, partial curve, poor fit].

**Q.** Which Potency does the source give for CC1=NN(c2nc3ccccc3[nH]2)C(=O)/C1=C/N(C)C here?
**A.** The Potency was inconclusive: 4.47 µM [inhibitor, partial curve].

**Q.** With O=C1Nc2ccccc2/C1=C/C(=O)c1cccs1 as the compound, how does the Potency read?
**A.** Its Potency is inconclusive: 35.5 µM [inhibitor, partial curve, poor fit].

**Q.** Which Potency does the source give for COc1ccc(CCNC(c2ccc(F)cc2)c2nnc(-c3ccccc3Cl)o2)cc1OC (stereo not given) here?
**A.** The Potency was active: 12.6 µM.

**Q.** For Cc1cc(C)c2nc(NNC(=O)c3ccc(S(=O)(=O)N4CCCCC4)cc3)sc2c1, which Potency is on record?
**A.** Its Potency is inconclusive: 2.91 µM [inhibitor, single point].

**Q.** Which Potency does the source give for Cc1nn2c(-c3ccncc3)nnc2c2ccccc12 here?
**A.** Its Potency is “inactive”.

**Q.** For COCCOCCn1c(/C=C/c2ccccc2)nc2ccccc21, which Potency is on record?
**A.** Its Potency is inconclusive: 15.8 µM [inhibitor, single point].

**Q.** For NS(=O)(=O)c1ccc(CCNC(=O)CN2CCC(Cc3ccccc3)CC2)cc1, which Potency is on record?
**A.** The Potency was inconclusive: 2.82 µM [inhibitor, full curve, poor fit].

**Q.** For Brc1ccc(C2=CC(c3cccs3)n3ncnc3N2)cc1 (stereo not given), which Potency is on record?
**A.** Its Potency is inconclusive: 2.59 µM [inhibitor, partial curve, poor fit].

**Q.** Which Potency does the source give for CCOC(=O)C1=C(C)NC(=O)NC1c1cn(-c2ccccc2)nc1-c1ccc(OC(C)C)cc1 (stereo not given) here?
**A.** Its Potency is inconclusive: 20 µM [inhibitor, partial curve, poor fit].

**Q.** Which Potency does the source give for O=C(/C=C/c1ccc(N2CCC(c3ccccc3)=N2)cc1)c1ccccc1 here?
**A.** The Potency was “inactive”.

**Q.** For CN1CCN(/N=C/c2nc(-c3ccc(Cl)cc3)n3ccccc23)CC1, which Potency is on record?
**A.** The Potency was inconclusive: 35.5 µM [inhibitor, single point].

**Q.** For COC(=O)Cc1ccc(NC(=S)NN2CCOCC2)cc1, which Potency is on record?
**A.** The Potency was inconclusive: 0.126 µM [inhibitor, full curve, poor fit].

**Q.** For CCc1ccc(OCC(O)CN2CCC(CN3C(=O)c4cccc5cccc(c45)C3=O)CC2)cc1 (stereo not given), which Potency is on record?
**A.** Its Potency is inconclusive: 5.17 µM [activator, partial curve, poor fit].

**Q.** With O=C1CCC/C1=c1\s/c(=C/c2cccnc2)c(=O)n1-c1ccccc1 as the compound, how does the Potency read?
**A.** The Potency was inconclusive: 35.5 µM [inhibitor, single point].

**Q.** With Cn1c(=O)c2c(nc(N3CCOCC3)n2Cc2c(F)cccc2Cl)n(C)c1=O as the compound, how does the Potency read?
**A.** Its Potency is “inactive”.

**Q.** Which Potency does the source give for Cc1c(C)c2ccc(OCC(=O)Nc3ccc(CN4CCOCC4)cc3)cc2oc1=O here?
**A.** Its Potency is inconclusive: 10 µM [inhibitor, partial curve, poor fit].

**Q.** With CCOC(=O)N1CCN(C(=O)CSCc2ccc(Br)cc2)CC1 as the compound, how does the Potency read?
**A.** Its Potency is inconclusive: 12.6 µM [inhibitor, partial curve, poor fit].

**Q.** For CCOc1ccc(C(=O)N(Cc2cc(OC)c(OC)c(OC)c2)c2ccccn2)cc1, which Potency is on record?
**A.** The Potency was inconclusive: 35.5 µM [inhibitor, single point].

**Q.** Which Potency does the source give for COc1cc(/C=C/c2nc(-c3ccccc3O)n[nH]2)cc(OC)c1OC here?
**A.** Its Potency is inconclusive: 29.1 µM [inhibitor, single point].

**Q.** For C/C(Cn1cnc([N+](=O)[O-])n1)=N\NC(=O)c1cccc(F)c1, which Potency is on record?
**A.** Its Potency is “inactive”.

**Q.** With CCOC(=O)c1ccc(N2CCOCC2)c(NC(=O)c2c(-c3ccccc3)noc2C)c1 as the compound, how does the Potency read?
**A.** Its Potency is active: 1.78 µM.

**Q.** For Cc1cc(OCCCn2c(CCNC(=O)C3CCCCC3)nc3ccccc32)ccc1Cl, which Potency is on record?
**A.** Its Potency is inconclusive: 15.8 µM [inhibitor, partial curve, poor fit].

**Q.** For COc1ccc(N(CC(=O)Nc2cccc(C(C)=O)c2)S(=O)(=O)c2ccccc2)c(OC)c1, which Potency is on record?
**A.** The Potency was inconclusive: 14.1 µM [inhibitor, partial curve, poor fit].

**Q.** For Cc1cc(N2CCOCC2)nc2ccc(NC(=O)CCC(=O)N3CCCCC3)cc12, which Potency is on record?
**A.** Its Potency is “inactive”.

**Q.** With COC(=O)N/N=C/c1ccc(OS(=O)(=O)c2ccc(C)cc2)c(OC)c1 as the compound, how does the Potency read?
**A.** Its Potency is “inactive”.

**Q.** With CCn1c(SCc2nc3scc(-c4ccccc4)c3c(=O)[nH]2)nnc1-c1cccs1 as the compound, how does the Potency read?
**A.** The Potency was inconclusive: 1.26 µM [inhibitor, full curve, poor fit].

**Q.** With COc1ccc(-c2c3c(=O)n(C)c(=O)n(C)c3c3n2-c2ccccc2NC3c2ccc(O)cc2O)cc1 (stereo not given) as the compound, how does the Potency read?
**A.** Its Potency is “inactive”.

**Q.** With CCCCn1c(SCC(=O)O)nc2ccccc21 as the compound, how does the Potency read?
**A.** The Potency was “inactive”.

**Q.** Which Potency does the source give for CCN1CCCC1CN(Cc1cc2ccc(C)cc2[nH]c1=O)C(=S)Nc1ccccc1C(=O)OC (stereo not given) here?
**A.** Its Potency is inconclusive: 35.5 µM [inhibitor, single point].

**Q.** With COc1ccc2c(Sc3ccc(C)cc3)c(C(=O)NCCc3ccccc3)[nH]c2c1 as the compound, how does the Potency read?
**A.** Its Potency is “inactive”.

**Q.** For CCN(CC)S(=O)(=O)c1ccc(C(=O)N2CCN=C2SC)cc1, which Potency is on record?
**A.** Its Potency is inconclusive: 0.0461 µM [activator, single point].

**Q.** For CC(C)(C)C(=O)Cn1c[n+](N)cn1, which Potency is on record?
**A.** The Potency was inconclusive: 3.55 µM [activator, single point].

**Q.** For Cc1ccc(C)c(NC(=O)c2ccc3c(c2)CCN3S(C)(=O)=O)c1, which Potency is on record?
**A.** The Potency was inconclusive: 7.94 µM [activator, partial curve].

**Q.** Which Potency does the source give for OC(CNCCC1C=Nc2ccccc21)Cn1c2ccc(Cl)cc2c2cc(Cl)ccc21 (stereo not given) here?
**A.** The Potency was inconclusive: 6.51 µM [inhibitor, single point].

**Q.** For CC(C)(CO)CNC(=O)CCc1nnc(Cc2ccc(-c3ccccc3)cc2)o1, which Potency is on record?
**A.** The Potency was “inactive”.

**Q.** For O=C(/C=C/c1ccccc1Cl)c1ccccc(=O)c1O, which Potency is on record?
**A.** Its Potency is inconclusive: 11.2 µM [inhibitor, partial curve, poor fit].

**Q.** For O=C(c1ccc(CN2CCOCC2)cc1)N1CCN(c2cccc(Cl)c2)CC1, which Potency is on record?
**A.** The Potency was inconclusive: 2.51 µM [activator, full curve, poor fit].

**Q.** For CC(=O)Oc1c(-c2ccc(Br)o2)oc2ccccc2c1=O, which Potency is on record?
**A.** Its Potency is inconclusive: 35.5 µM [inhibitor, single point].

**Q.** With COc1ccc(C(=O)Nc2cc3c4c(c2)C(C)C(=O)N4CCC3)cc1OC (stereo not given) as the compound, how does the Potency read?
**A.** The Potency was “inactive”.

**Q.** Which Potency does the source give for C/C(CC(=O)Nc1ccc(N(C)C)cc1)=N\NC(=O)c1ccc([N+](=O)[O-])cc1Cl here?
**A.** The Potency was inconclusive: 1 µM [inhibitor, single point].

**Q.** With Cc1cc(-n2cnnn2)cc(C)c1S(=O)(=O)N(C)c1ccccc1 as the compound, how does the Potency read?
**A.** Its Potency is inconclusive: 0.891 µM [inhibitor, full curve, poor fit].

**Q.** Which Potency does the source give for CCCCCCNC(=O)C(=O)NCCc1ccc(Cl)cc1 here?
**A.** The Potency was inconclusive: 5.62 µM [inhibitor, single point].

**Q.** With CCOc1ccc(CNCCc2ccc(S(N)(=O)=O)cc2)cc1 as the compound, how does the Potency read?
**A.** Its Potency is inconclusive: 35.5 µM [inhibitor, single point].

**Q.** Which Potency does the source give for CN(C)c1nc(N(C)C)nc(N(C#N)CN2C(=O)c3ccccc3S2(=O)=O)n1 here?
**A.** The Potency was “inactive”.

**Q.** With CC(C)c1nnc(NC(=O)CC(C)c2ccccc2)s1 (stereo not given) as the compound, how does the Potency read?
**A.** Its Potency is “inactive”.

**Q.** Which Potency does the source give for Cc1cccc(N(Cc2cc3ccccc3[nH]c2=O)S(=O)(=O)c2ccccc2)c1 here?
**A.** Its Potency is “inactive”.

**Q.** Which Potency does the source give for Cc1ccc(/C=C/C(=O)c2nc3ccccc3[nH]2)cc1 here?
**A.** Its Potency is inconclusive: 29.1 µM [inhibitor, single point].

**Q.** Which Potency does the source give for CC(C)NC(=O)CN1C(=O)C(=O)c2ccccc21 here?
**A.** The Potency was inconclusive: 0.231 µM [activator, single point].

**Q.** For COCC(=O)OC1CCn2c1nc1c2C(=O)C(C)=C(NC(C)=O)C1=O (stereo not given), which Potency is on record?
**A.** Its Potency is inconclusive: 1.12 µM [inhibitor, full curve, poor fit].

**Q.** For COc1ccc(Cl)cc1NC(=O)CSc1nc(N2CCOCC2)nc(N2CCOCC2)n1, which Potency is on record?
**A.** The Potency was inconclusive: 22.4 µM [inhibitor, single point].

**Q.** Which Potency does the source give for Cc1cccc(CN2CCC(C(=O)Nc3ccc(Oc4cccnc4)cc3)CC2)c1 here?
**A.** The Potency was inconclusive: 10 µM [inhibitor, partial curve, poor fit].

**Q.** Which Potency does the source give for C=CCc1cc(Cl)ccc1OCCn1ccnc1 here?
**A.** The Potency was inconclusive: 12.6 µM [activator, single point].

**Q.** Which Potency does the source give for C[C@@H](C(=O)Nc1ccc2ccccc2c1)[C@H]1C[C@]1(C)[C@H](NC(=O)OCc1ccccc1)c1ccccc1 here?
**A.** Its Potency is inconclusive: 29.1 µM [inhibitor, single point].

**Q.** Which Potency does the source give for Cc1ccc(C)c(NC(=O)CN(C)C(=O)C2CCN(C(=O)Nc3ccccc3)CC2)c1 here?
**A.** The Potency was “inactive”.

**Q.** For CCCCN(CC)CCNC(=O)c1cn(-c2ccc(Cl)cc2)c(=O)c2ccccc12, which Potency is on record?
**A.** The Potency was inconclusive: 7.08 µM [inhibitor, partial curve, poor fit].

**Q.** For O=C(Nc1ccn(C2CC(OC(=O)c3ccccc3)C(CO)O2)c(=O)n1)c1ccccc1 (stereo not given), which Potency is on record?
**A.** The Potency was inconclusive: 11.2 µM [activator, partial curve].

**Q.** For Cc1ccc(C(=O)Nc2nnc(C)s2)cc1, which Potency is on record?
**A.** Its Potency is inconclusive: 14.1 µM [inhibitor, single point].

**Q.** For NC(=O)CN1CCN(C2CC(=O)N(CCc3ccccc3)C2=O)CC1 (stereo not given), which Potency is on record?
**A.** The Potency was inconclusive: 35.5 µM [activator, partial curve, poor fit].

**Q.** Which Potency does the source give for COC(=O)c1[nH]c2ccccc2c1NC(=O)CN1CCN(C/C=C/c2ccccc2)CC1 here?
**A.** The Potency was active: 18.3 µM.

**Q.** Which Potency does the source give for Cn1c(=O)c2c(nc(NCc3ccccc3)n2CCCc2ccccc2)n(C)c1=O here?
**A.** The Potency was inconclusive: 31.6 µM [inhibitor, single point].

**Q.** With O=C(c1ccccc1F)N1CCN(c2cccc(C(F)(F)F)c2)CC1 as the compound, how does the Potency read?
**A.** Its Potency is inconclusive: 0.82 µM [inhibitor, partial curve, poor fit].

**Q.** Which Potency does the source give for Nc1ccc(-c2cc(-c3cccc(N)c3)nc(-c3ccccc3)n2)cc1 here?
**A.** Its Potency is “inactive”.
